Laboratory results as given in patent US20200148768A1.
No constants are given. Whether binding was seen depends on the method and setting. Some results given as binding are weak or reduced against the parent protein; the word gives no strength. Tags and fused reporters may be left off the sequences shown.

T1: human BTN1A1-ECD-His6 (human), Q13410
T1 chain: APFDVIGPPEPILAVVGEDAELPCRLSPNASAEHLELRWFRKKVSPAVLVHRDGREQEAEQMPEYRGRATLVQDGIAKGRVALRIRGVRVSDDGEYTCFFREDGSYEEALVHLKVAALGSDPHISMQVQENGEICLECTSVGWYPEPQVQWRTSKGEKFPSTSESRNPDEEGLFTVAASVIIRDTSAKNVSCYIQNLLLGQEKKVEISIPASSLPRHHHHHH

B1: STC810 (antibody, V domains shown)
VH: EVQLQQSGPELVKPGASVKISCKASGYTFTHYNMDWVKQSHGKSLEWIGYIYPSNGGTGYNQKFKSRATLTVDKSSSTAYMELHSLTSEDSAVYYCARGAYHYGSSYAYWYFDVWGAGTTVTVSS
VL: DIQMTQTTSSLSASLGDRVTISCSASQDISNYLNWYQQKPDETVKLLISYTSSLHSGVPSRFSGSGSGTDYSLTISNLAPEDIATYYCQQSSKLPFTFGSGTELEIKRA
modifications: here or on the partner: N-glycosylated (PNGase F sensitive)
B2: STC838 (antibody, V domains shown)
VH: EVQLQQSGPELVKPGASVKISCKASGYTFTHYNMDWVKQSHGKSLEWIGYIYPSNGGTGYNQKFKSRATLTVDKSSSTAYMELHSLTSEDSAVYYCARGAYHYGSSYAYWYFDVWGAGTTVTVSS
VL: DIQMTQTTSSLSASLGDRVTISCSASQDISNYLNWYQQKPDETVKLLISYTSSLHSGVPSRFSGSGSGTDYSLTISNLAPEDIATYYCQQSSKLPFTFGSGTELEIKRA
modifications: here or on the partner: N-glycosylated (PNGase F sensitive)

How the values were obtained:
[1] = biological target: T1, human BTN1A1-ECD-His6 (human), Q13410; experiment: dot blot, lanes 9 and 10; antigen not labelled on the sheet, taken from legend paragraph 65 as BTN1A1-ECD-His6 without and with PNGase F; layout from D00019 FIG. 19B; conditions: remark: other sources report otherwise
[2] = biological target: T1, human BTN1A1-ECD-His6 (human), Q13410; experiment: dot blot, BTN1A1-ECD-His with and without PNGase F; conditions: remark: other sources report otherwise

Binder	binding [1]	binding [2]
B1	binds	binds
B2	binds	binds
